PubChem BioAssay AID1487 (National Center for Advancing Translational Sciences (NCATS), 2009)
This is one part of the list. Shown are side measurements of this screen, not its main read-out; they come without a call. Most of these compounds were active or inconclusive in the main read-out, so they are no random draw. Potencies come from curve fits of mixed quality, noted in brackets.

Test: qHTS Assay for Modulators of Lamin A Splicing
Details: HeLa LMNA splicing GFP/RFP minigene ratio, 48 h
Outline: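 S3 HeLa cells stably expressing lamin A-EGFP splicing minigene plus DsRed2, 600 cells/well, 48 h compound exposure at 37C. Laser-scanning cytometry; analysed as GFP (500-530 nm)/RFP (575-640 nm) total intensity ratio; 0.5% DMSO vehicle.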

[1] = measured here: GFP splicing reporter channel
[2] = measured here: RFP viability control channel

Row | SMILES | AC50 [1] | AC50 [2]
1 | Cc1cccc(NC(=S)NCCc2ccc3c(c2)OCCO3)c1C | 0.891 µM [rising, single point] | –
2 | O=C(O)CCc1nc2cccnc2n1Cc1ccccc1 | – | 0.708 µM [falling, full curve, poor fit]
3 | Fc1ccc(-n2ncc3c(SCc4cccnc4)ncnc32)cc1 | – | 0.0251 µM [rising, full curve, poor fit]
4 | COc1ccc(-c2cnnn2-c2ccc(NC(=O)c3c(F)cccc3F)cc2)cc1 | 0.0398 µM [falling, full curve] | –
5 | COc1ccc(CNS(=O)(=O)c2ccc3c(c2)CCN3C(=O)C2CC2)cc1 | 20 µM [rising, partial curve, poor fit] | 15.8 µM [rising, partial curve]
6 | O=C(C1CCCO1)N1CCN(C(=S)Nc2ccccc2C(F)(F)F)CC1 (configuration not stated) | – | 35.5 µM [rising, single point]
7 | O=C1C2C3C=CC(C3)C2C(=O)N1/N=C/c1ccc(-c2ccccc2[N+](=O)[O-])o1 (configuration not stated) | – | 20 µM [rising, single point]
8 | COc1cccc(Oc2nc(-c3ccncc3)nc3ccccc23)c1 | – | 1 µM [falling, single point]
9 | COC(=O)c1ccc(-c2noc(CN(C)CCC3CCCCO3)n2)cc1 (configuration not stated) | – | 35.5 µM [falling, single point]
10 | O=S(=O)(NC1c2cccc3cccc(c23)C1N1CCN(CCO)CC1)c1ccccc1 (configuration not stated) | – | 10 µM [rising, partial curve]
11 | CC(C)c1ccc(NC(=O)c2cc(S(=O)(=O)NCC3COc4ccccc4O3)ccc2F)cc1 (configuration not stated) | 35.5 µM [falling, single point] | –
12 | Cc1ccc(S(=O)(=O)NCCSc2nnnn2-c2cc(C)ccc2C)cc1 | 15.8 µM [rising, partial curve, poor fit] | 25.1 µM [rising, single point]
13 | O=C(CCNc1ccccc1)c1ccc2c(c1)OCO2 | 11.2 µM [rising, partial curve, poor fit] | 11.2 µM [rising, partial curve]
14 | COC(=O)C1=C(C)N(Cc2ccc(C)cc2)C(=O)/C1=C\c1ccc(O)c(OC)c1 | 7.08 µM [rising, partial curve, poor fit] | 10 µM [rising, partial curve, poor fit]
15 | COc1ccccc1-c1ccc(SCc2cccc(F)c2)nn1 | 0.00355 µM [rising, full curve, poor fit] | –
16 | O=C(Cc1cccs1)N1CCN(S(=O)(=O)c2ccc(Br)cc2)CC1 | 31.6 µM [rising, single point] | 35.5 µM [rising, single point]
17 | Cc1ccc(Cn2ccc(NC(=O)c3cc(-c4ccc(F)cc4)on3)n2)cc1 | 3.55 µM [rising, full curve, poor fit] | –
18 | CCCOc1ccc(-c2nnn(CC(=O)N3CCC(C)CC3)n2)cc1 | – | 17.8 µM [rising, single point]

Row | SMILES | AC50 [1] | AC50 [2]
19 | Cc1ccc(C(=O)COC(=O)c2ccc3c(c2)C(=O)N(c2cccc4ncccc24)C3=O)cc1C | – | 22.4 µM [falling, partial curve, poor fit]
20 | CC(C)N(C(=O)N1CCC(c2nc(-c3ccncc3)no2)CC1)C(C)C | – | 15.8 µM [rising, partial curve, poor fit]
21 | COc1ccc(N2CCN(C(=O)c3ccc(OCC4CCCO4)cc3)CC2)cc1 (configuration not stated) | – | 10 µM [rising, partial curve]
22 | Cc1cc(C)nc(N/C(=N\S(=O)(=O)Cc2ccccc2)Nc2ccccc2Br)n1 | 35.5 µM [rising, single point] | 35.5 µM [rising, single point]
23 | O=C(Nc1cccc(-c2csc(-c3ccccc3)n2)c1)c1cccs1 | – | 10 µM [rising, partial curve, poor fit]
24 | COC(=O)c1c(-c2cccc(C)c2)csc1NC(=O)C1CCCO1 (configuration not stated) | 25.1 µM [falling, single point] | –
25 | Cc1cccc(-n2c(SCC(=O)N3CC(=O)Nc4ccccc43)nc3ccccc3c2=O)c1C | – | 12.6 µM [rising, single point]
26 | CCOC(=O)c1cc2oc(C(c3nnnn3C3CCCCC3)N3CCOCC3)cc2[nH]1 (configuration not stated) | – | 12.6 µM [rising, partial curve]
27 | Cc1ccc(Cl)cc1N(CC(=O)NCc1ccc2c(c1)OCO2)S(C)(=O)=O | 10 µM [rising, partial curve, poor fit] | 11.2 µM [rising, partial curve]
28 | Cc1ccc(NC(=O)CCC(=O)NNC(=O)c2cccc([N+](=O)[O-])c2)cc1C | – | 35.5 µM [falling, single point]
29 | O=C(COc1ccccc1F)OCc1cc(=O)n2nc(-c3cccs3)sc2n1 | – | 0.398 µM [falling, full curve, poor fit]
30 | CCOc1cc(N2CCOCC2)c(OCC)cc1NC(=O)c1ccc(C)cc1 | – | 22.4 µM [rising, partial curve]
31 | COCCCn1c(SCc2cccc(C(F)(F)F)c2)nc2cc(OC)c(OC)cc2c1=N | – | 17.8 µM [falling, single point]
32 | COc1cccc(Oc2ccc(C(F)(F)F)cc2NC(=O)c2cccc(F)c2)c1 | 12.6 µM [rising, partial curve] | 20 µM [rising, single point]
33 | COc1ccc(NC(=O)c2c(NCc3ccc(C)o3)sc3c2CCC(C)C3)c(OC)c1 (configuration not stated) | 6.31 µM [falling, partial curve, poor fit] | 3.55 µM [falling, partial curve]
34 | CC1(C)CC(CC(=O)Nc2ccccc2[N+](=O)[O-])C(=O)O1 (configuration not stated) | 0.178 µM [rising, full curve, poor fit] | 0.141 µM [rising, full curve, poor fit]
35 | COc1ccc(OC)c(NC(=O)CSc2ccnc(=O)[nH]2)c1 | 0.00447 µM [rising, full curve, poor fit] | –
36 | Cc1ccc(Nc2nc(-c3c(C)nc4ncccn34)cs2)cc1 | 0.282 µM [falling, full curve] | 0.251 µM [falling, full curve]

Of the compounds above, these have a CF3 group.
Row | SMILES | AC50 [1] | AC50 [2]
6 | O=C(C1CCCO1)N1CCN(C(=S)Nc2ccccc2C(F)(F)F)CC1 (configuration not stated) | – | 35.5 µM [rising, single point]
31 | COCCCn1c(SCc2cccc(C(F)(F)F)c2)nc2cc(OC)c(OC)cc2c1=N | – | 17.8 µM [falling, single point]
32 | COc1cccc(Oc2ccc(C(F)(F)F)cc2NC(=O)c2cccc(F)c2)c1 | 12.6 µM [rising, partial curve] | 20 µM [rising, single point]
